Article PMC10714915
No constants are given. Whether binding was seen depends on the method and setting. Binding seen in cells or lysates may run through a third protein. Some entries that bind do so weakly or less than the wild type.

Chains of the proteins cited; added tags and fusions are not shown.
UniProt Q96LC9: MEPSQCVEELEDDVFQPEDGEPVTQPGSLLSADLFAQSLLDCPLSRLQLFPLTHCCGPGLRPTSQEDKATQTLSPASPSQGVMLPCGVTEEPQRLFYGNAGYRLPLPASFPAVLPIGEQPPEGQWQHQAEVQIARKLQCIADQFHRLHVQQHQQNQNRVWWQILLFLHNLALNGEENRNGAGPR

What was measured:
[1] = biological target: BCL-2 modifying factor (BMF) (human (endogenous in BE(2)-C and SK-N-DZ)) (UniProt Q96LC9); test: co-IP; BMF immunoprecipitated from detached (suspension) BE(2)-C-shATF5 and SK-N-DZ-shATF5 cells with Dox (ATF5 knockdown, BMF induced); BCL-XL detected in the precipitate
[2] = biological target: BCL-2 modifying factor (BMF) (human (endogenous in BE(2)-C and SK-N-DZ)) (UniProt Q96LC9); test: condition: only without Dox treatment (ATF5 not knocked down, BMF not induced); co-IP; BMF immunoprecipitated from detached (suspension) BE(2)-C-shATF5 and SK-N-DZ-shATF5 cells without Dox treatment; BCL-XL looked for in the precipitate

For BCL-XL (from UniProt Q07817-1 1-233), the binding [1] was “binds” and the binding [2] was “no binding”.
